In patent US20070122380A1 (UNIVERSITY OF CONNECTICUT, published 2007):
Results are given in words; binding and its absence hold for the method and conditions named. Some results given as binding are weak or reduced against the parent protein; the word gives no strength. Blank lines part the entries; values can stand above or below the binder they belong to.

Protein sequences, listed by entry. Tags and fused reporters are not part of them. Residues count along the entry.
UniProt Q08048, residues 496-728: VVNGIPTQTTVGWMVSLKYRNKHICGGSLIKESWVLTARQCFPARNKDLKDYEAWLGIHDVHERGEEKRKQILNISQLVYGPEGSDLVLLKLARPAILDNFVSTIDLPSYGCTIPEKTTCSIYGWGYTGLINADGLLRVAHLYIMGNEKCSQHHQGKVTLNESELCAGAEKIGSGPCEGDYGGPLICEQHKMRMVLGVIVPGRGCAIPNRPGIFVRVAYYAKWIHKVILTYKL

Tests used:
[1] = substrate: PPBSF cofactor (native, 30 kD non-IL-7 component of PPBSF) (mouse) (UniProt Q08048); assay: complex formation in IL-7 KO conditioned medium, Western immunoblot with anti-IL-7 mAb (FIG. 8)
[2] = substrate: PPBSF cofactor (native, 30 kD non-IL-7 component of PPBSF) (mouse) (UniProt Q08048); assay: complex formation on mixing conditioned media, Western immunoblot with anti-IL-7 mAb (FIG. 9)

binding [1]: binds
B1: recombinant IL-7 (ligand)
chain: ECHIKDKEGKAYESVLMISIDELDKMTGTDSNCPNNEPNFFRKHVCDDTKEAAFLNRAARKLKQFLKMNISEEFNVHLLTVSQGTQTLVNCTSKEEKNVKEQKKNDACFLKRLLREIKTCWNKILKGSI

binding [2]: binds
B2: native IL-7 (from pre-B CM) (ligand)
chain: B1 chain
